# Library screening results

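Viability assay of Plasmodium falciparum sporozoites; the read-out is not stated. The concentration is filed as 10 mM, unlikely as a test dose, so the dose is not known. Higher reads as lower viability (inferred: compounds with an IC50 in retests scored well above the rest). Strong results were mostly tested again. About 34,000 compounds were tested under these conditions; 0.84% (about 280) showed 50% or more at least once.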

Values are the deposited “Percent Effect”, in %.
The record does not define 0% and 100%; most values in the screen are far below 50% and negative numbers occur (in some assays of this library far below -100).
The compounds are a random part of those screened.
Two or more numbers in one place are separate tests of the same structure; such repeats can differ widely.

- NC(=O)C1CCN(C(=O)c2ccn(-c3ccc(F)cc3)n2)C1 (stereo not drawn) : -10.28%
- Cn1cnnc1C1CCCN(C(=O)COc2ccccc2Cl)C1 (stereo not drawn) : -4.728%
- Cc1nc2ccnn2c(C)c1CCC(=O)N1CCC(C(N)=O)CC1 : 7.579%
- Cc1cccc(C)c1Oc1ncccc1CNC(=O)C1COC(=O)N1 (stereo not drawn) : 1.611%
- COc1c(C)cnc(CN2CCCC(Cn3nc(C)nc3C)C2)c1C (stereo not drawn) : 9.234%
- O=C(O)C(F)(F)F.O=C(c1cnccn1)N1CCCC2(CCN(c3ncccn3)C2)C1 (stereo not drawn) : -11.26%
- CC(O)CN1CCN(Cc2csc(-c3ncccn3)n2)CC1 (stereo not drawn) : 68.95% and 42.73% and 61.03%
- O=C(c1cnn2cccnc12)N1CCCC(n2ccnc2)C1 (stereo not drawn) : 6.654%
- CC(=O)N1CCC2(C1)CN(S(=O)(=O)c1ccccc1)C2 : -0.4378%
- O=C(Cc1ccc(F)cc1)N1CCn2cc(Cn3cccn3)nc2C1.O=C(O)C(F)(F)F : -3.886%
- Cc1cnc(N2CCc3c(c(COc4cncnc4)nn3C)C2)nc1 : 16.29%
- [H][C@]12CCN(C(=O)c3cnccn3)[C@@]1([H])CC[C@@H](COCC)O2 : -3.07%
- Cc1cc(Nc2cnccn2)cc(C2CCCN2)n1 (stereo not drawn) : 8.117%
- CN(C)C(=O)CN1CCC2(CC1)CN(S(C)(=O)=O)Cc1ccccc1O2 : -23.82%
- Cc1ncsc1CNC(=O)N1CCN(Cc2ccccc2)C[C@H]1C : 7.993%
- CNC(=O)c1cccnc1Oc1ccccc1 : 2.284%
- Cc1ccc([C@@H]2CN(C(=O)c3ccsc3)C[C@H]2NC(=O)C2CC2)cc1 : 6.946%
- Cc1cnc(C(=O)N2CCCC(n3cccn3)C2)cn1 (stereo not drawn) : -17.32%
- Cc1ccc2c(c1)C(=O)CC1(CCN(Cc3ccccc3)CC1)O2 : 19.44% and 40.86% and 12.67%
- COc1ccc(C)cc1S(=O)(=O)NCC(c1cccn1C)N(C)C (stereo not drawn) : 5.077%
- O=C(CCc1nc(C2CC2)no1)c1ccccc1 : -43.48% and -42.5%
- CC(C)(C)CN(CCC#N)C(=O)c1cccc(CN2CCCC2)c1 : 2.163%
- O=C(O)C(F)(F)F.[H][C@@]12CCCO[C@]1([H])[C@H](NC(=O)c1cnoc1C)CN(Cc1ccco1)C2 : 2.836%
- CS(=O)(=O)NCc1nnc2n1CCN(Cc1cccs1)C2 : -4.8%
- C=C(C)COCCNC(=O)C1CCCN1C(C)=O (stereo not drawn) : 9.485%
- Cc1ccc(OCCN2CCC(c3nc(C)n4c(C)csc34)CC2)cc1 : 4.687%
- CCN1CCN(Cc2c(-c3ccco3)[nH]c3ncccc23)CC1 : 12.89%
- CNc1nc(C)c(C(=O)NCC(C)(C)N2CCCCC2)s1 : -2.091%
- CC(C)CNC(=O)CC1(Cn2cnnn2)CCCCC1 : -0.09083%
- COCCN1C(=O)CC(c2cccnc2)C12CCN(C)CC2 (stereo not drawn) : 9.282%
- CCC(C)NC(=O)c1cc(S(N)(=O)=O)c(Br)s1 (stereo not drawn) : 8.735%
- O=C(O)C(F)(F)F.[H][C@@]12C[C@H](C(=O)N3CCCC3)[C@@]([H])(CN(CC(C)C)C1)O2 : 1.386%
- Cc1ccc(OCCC(=O)N2CCOCC2c2ncon2)cc1C (stereo not drawn) : -12.43%
- Cc1nc(C2(O)CCCNCC2)sc1CCOc1ccccc1.Cl (stereo not drawn) : -6.4%
- Cc1nc(CNCC2CCCN2c2cccnn2)no1 (stereo not drawn) : -11.79%
- CC[C@H](C)[C@H](N)C(=O)Nc1nc(-c2cnc(N(C)CCO)nc2)cs1 : 2.964%
- Cn1ncc2c(=O)[nH]c(CN3CCCC3c3ccsc3)nc21 (stereo not drawn) : 5.794%
- O=C(NCCO)C1(Cc2cc(-c3ccc(F)cc3F)no2)CCOCC1 : -3.673%
- Cc1c(-c2cccs2)nn2c(O)c3c(nc12)CN(C(=O)C1CC1)C3 : 4.883%
- COCCC(=O)N1CCC2(CN(Cc3ccc(OC)c(F)c3)C2)C1 : 3.087%
- CCn1nc(C)c(CNC(=O)c2cn(CCC3CCCCN3)nn2)c1C (stereo not drawn) : -8.369%
- COc1ccc(CN(C)[C@@H]2COC[C@H]2c2ccc(F)cc2)c(OC)c1.O=C(O)CC(O)(CC(=O)O)C(=O)O : -4.876%
- CCCN1CCC(CNC(=O)C2(c3cccc(C)c3)CC2)C1 (stereo not drawn) : 5.787%
- Cc1ncc(CNC(=O)Cc2ccsc2)c(C2CCCN2C)n1 (stereo not drawn) : 3.398%
- NC(=O)c1ccc(C(=O)N2CCCC(n3ccnc3)C2)s1 (stereo not drawn) : 1.823%
- CCOCC(=O)N1C[C@@H](NC(C)=O)[C@H](c2ccc(OC)cc2)C1 : -4.077%
- O=C(NCc1ccccc1)NCC(O)c1cccc(F)c1 (stereo not drawn) : 8.071%
- Cc1noc(C)c1-c1cccc(CC2CCN(C(=O)c3cc[nH]n3)C2)n1 (stereo not drawn) : -10.27%
- C[C@H]1CCCCN1CCCNc1nccc(-c2c[nH][nH]c2=O)n1 : 5.334%
- CC(=O)NCC1CCN(C(=O)c2c[nH]c3cc(Cl)ccc23)CC1 : -14.47%
- CC(=O)N(C)c1nc(CN2CCCC2c2cnn(C)c2)cs1 (stereo not drawn) : -1.807%
- Cc1cc(C2CCCN2Cc2ccn(C)c(=O)c2)on1 (stereo not drawn) : 5.047%
- Cn1c(=O)c2cc(C(=O)NCc3ccncc3)ccc2n(C)c1=O : 4.88%
- COc1ccc(OC2CCN(C(=O)c3ccc(C)[nH]c3=O)CC2)cc1 : -22.61%
- Cc1ccc(-c2nnc(CN3CCCC(O)(CO)CC3)o2)n1C (stereo not drawn) : 6.681%
- COCCC(=O)NC1CCN(CC2(c3cccc(F)c3)CCCC2)CC1.Cl : 6.825%
- Cc1nc(C)n(CC2CCCN(CCC(=O)Nc3cc(C)on3)C2)n1 (stereo not drawn) : 1.394%
- CC1c2ncc(Cn3cncn3)n2CCN1C1CCOCC1.O=C(O)C(F)(F)F (stereo not drawn) : -2.056%
- [H][C@@]12C[C@@H](c3ccncn3)O[C@]1([H])CN(C(=O)c1c(C)noc1C)C2 : 4.38%
- CCc1cc(O)n2nc(C3CCN(C(=O)c4ccccn4)CC3)cc2n1 : 5.32%

For reference, 5 entries once more:

structure,percent effect
CC(C)CNC(=O)CC1(Cn2cnnn2)CCCCC1,-0.09083
C=C(C)COCCNC(=O)C1CCCN1C(C)=O (stereo not drawn),9.485
Cc1cnc(N2CCc3c(c(COc4cncnc4)nn3C)C2)nc1,16.29
Cc1ncsc1CNC(=O)N1CCN(Cc2ccccc2)C[C@H]1C,7.993
Cc1cnc(C(=O)N2CCCC(n3cccn3)C2)cn1 (stereo not drawn),-17.32

The values are deposited in ChEMBL (CHEMBL3988442, “University of Dundee, Small-Polar-MMV Screening Library” (2021)).